# Data source: PubChem BioAssay AID686937 (Drosophila RNAi Screening Center, 2013)
# Aim: 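Knock-downs that reduce output of a secreted reporter enzyme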 (primary screen)
# Cell system: Drosophila S2 cells expressing secreted horseradish peroxidase
# Knock-down reagent: long dsRNA against Drosophila genes
# Timing: about 5.5 days (5 days dsRNA, then 12 h reporter induction)
# Conditions: reporter expression induced after 5 days of dsRNA, read 12 h later; inducer not stated
# Detection: 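After 5 days of dsRNA and 12 h of reporter induction, medium peroxidase read by chemiluminescence and scored as per-plate z-score; higher values mean more reporter released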
# Direction: z-score: higher = more reporter secreted into medium
# The deposit covers about 23,000 reagents; this is a random part of those with a known target gene and a result. 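Reduced-secretion tags in replicate 1 do not always agree with the z-scores; no criterion for assigning the tags was given.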 The numbers tell different reagents against one gene apart. Names joined by + are all predicted targets of the reagent. The record does not give: the amount of reagent.
Gene,reagent no.,"z-score, replicate 1","z-score, replicate 2","z-score, replicate 3","z-score, replicate 4","phenotype, replicate 1"
Nepl7,1,0.6,0.4,-0.08,0.08,
Smvt,1,0.55,0.47,,,
fl(2)d,1,0.24,0.45,,,
CG7519,1,0.41,0.19,,,
CG14234,1,0,0.51,,,
CG14234,2,0.15,0.27,,,
Mbs,1,0.78,0.7,,,
Mbs,2,0.35,0.42,,,
Mbs,3,0.48,0.38,1.19,0.64,
RIOK2,1,0.19,0.04,,,
Fa2h,1,0.09,0.1,,,
Fa2h,2,0.11,0.13,,,
CG6660,1,0.14,0.33,,,
eIF4E6,1,0.32,0.4,,,
CG31515,1,0.47,0.44,,,
CG12769,1,0.56,0.43,,,
CG9083 + Tpc2,1,0.04,0.05,,,
mthl14,1,0.4,0.25,,,
Oatp58Da,1,0.13,0.22,,,
und,1,0.48,0.44,,,
Dap160,1,0.08,0.46,,,
Dap160,2,0.42,0.38,,,
CG9676,1,0.39,0.44,,,
CG10340,1,0.1,0.2,,,
Unc50,1,-0.35,-0.61,,,
CG8435,1,-1.62,-1.93,,,reduced secretion
CG7786,1,0.36,0.07,,,
CG10862,1,-0.19,0.05,,,
reb,1,0.39,0.37,,,
Irk2,1,0.29,0.34,,,
Rap2l,1,0.13,0.5,,,
CG30099,1,0.23,0,,,
CG9192,1,0.45,0.27,,,
CG8420,1,-0.12,0.57,,,
tow,1,-2.54,-3.62,,,reduced secretion
sns,1,-2.47,-1.99,,,reduced secretion
sns,2,-0.84,-0.53,,,
sns,3,0.76,0.66,,,
sns,4,0.23,0.02,,,
sns,5,0.23,0.19,,,
sns,6,-0.02,-0.18,,,
Drgx,1,0.34,0.11,,,
Drgx,2,0.21,0.42,,,
pdm2,1,0.36,0,,,
pdm2,2,-0.36,-1.09,,,
pdm2,3,0,-0.19,,,
CCAP-R,1,0.17,0.3,,,
CCAP-R,2,0.2,0.14,,,
Slh,1,0.12,0.16,,,
Slh,2,-3.78,-5.36,,,reduced secretion
Ankrd49,1,0.27,0.34,,,
CG10841,1,0.26,0.32,,,
RpL18,1,0.64,0.39,-0.85,-0.24,reduced secretion
RpL18,2,-1.13,-2.71,,,reduced secretion
Chchd3,1,-1.6,-2.44,,,reduced secretion
GATAe,1,0.55,0.09,-0.13,-0.26,

An excerpt from above, showing only “z-score, replicate 2”.
CG8420: 0.57
tow: -3.62
sns #1: -1.99
sns #2: -0.53
sns #3: 0.66
